The supplement of paper PMC11637464
Where a name gives a salt, the structure may show the parent alone. This is one part of the list. Single values are uncertain, as repeats are few or missing.

System: primary mouse Muller glia with Ascl1 overexpression
Test: Neuronal cell count fold change vs Ascl1-only control (log2 fold change); higher = more neurogenesis
Method: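 Primary P11 mouse Muller glia carrying dox-inducible Ascl1 were treated with Tocriscreen Stem Cell Library compounds at 0.1, 1 or 10 uM together with doxycycline for 5 days, then profiled by sci-Plex hashing and sci-RNA-seq2. Cells were annotated by marker genes and cell-type counts per well were size-factor adjusted. Read-outs are the log2 fold change of Neuronal (NeuPre + bipolar) and ProL cell counts versus the Ascl1-only control wells of the same collection day, plus the raw number of recovered cells per well. There is one well per dose, and wells with fewer than 20 cells were discarded.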

| Compound | Neuronal cell count fold change (0.1 µM) | Neuronal cell count fold change (1 µM) | Neuronal cell count fold change (10 µM) |
| --- | --- | --- | --- |
| O=c1cc(N2CCOCC2)oc2c(-c3ccccc3)cccc12 (collection day: 1) | -0.943 | -0.322 | -1.84 |
| NC(=O)c1ccc(-c2nc(-c3ccccn3)c(-c3ccc4c(c3)OCO4)[nH]2)cc1 (collection day: 1) | -0.184 | 0.485 | 0.566 |
| Nc1ncn([C@@H]2O[C@H](CO)[C@@H](O)[C@H]2O)c(=O)n1 [5-Azacytidine] (collection day: 2) | 0.3 | -0.531 | -0.7 |
| O=C(O)C(Cc1c[nH]c2ccccc12)N1C(=O)c2ccccc2C1=O (stereo unspecified) (collection day: 2) | 0.107 | 0.206 | 0 |
| NC(=O)c1cccnc1 [Nicotinamide] (collection day: 2) | 0.3 | -0.7 | 0.3 |
| Cc1cccc(-c2[nH]ncc2-c2ccc3ncccc3n2)n1 (collection day: 2) | 1.16 | 0.469 | 1.21 |
| O=C(NC1CCOCC1)c1ccc(-c2cc(-c3c[nH]nc3-c3ccccn3)ccn2)cc1 (collection day: 2) | 0.547 | 0.387 | 0.759 |
| CC(C)(C)c1ccc(S(=O)(=O)NCc2ccc(C(=O)Nc3cccnc3)cc2)cc1 (collection day: 2) | -0.7 | -0.531 | – |
| CN(CCOc1ccc(CC2SC(=O)NC2=O)cc1)c1ccccn1 (stereo unspecified) [Rosiglitazone] (collection day: 2) | 0.107 | 0 | 0 |
| CCN(CC)S(=O)(=O)Nc1cccc(-c2ccc3c(NC(=O)C4CC4)n[nH]c3c2)c1 (collection day: 2) | -0.531 | 0.107 | 0.107 |
| CN(C)CCOc1cc(-c2cn[nH]c2)ccc1NC(=O)C1COc2ccccc2O1 (stereo unspecified) [SR 3677 dihydrochloride] (collection day: 2) | -0.241 | – | 0.547 |
| CC(=O)N(C)c1cccc(-c2ccc3nnc(C)n3n2)c1 (collection day: 2) | -0.7 | 0 | -0.241 |
| Cc1ccc(/C=N/NC(=O)c2ccccc2Oc2ccccc2)o1 (collection day: 2) | -0.7 | 0 | -0.115 |
| CC(C)N(CCCNC(=O)Nc1ccc(C(C)(C)C)cc1)C[C@H]1O[C@@H](n2ccc3c(N)ncnc32)[C@H](O)[C@@H]1O (collection day: 2) | – | 0.3 | 0.692 |
| CCCC[S+]([O-])c1sc2nc(-c3cccs3)cc(-c3ccccc3)c2c1N (stereo unspecified) (collection day: 2) | – | 0.206 | -1.7 |

Reprinted from the results shown, 2 compounds:

| Compound | Neuronal cell count fold change (0.1 µM) | Neuronal cell count fold change (1 µM) | Neuronal cell count fold change (10 µM) |
| --- | --- | --- | --- |
| CCN(CC)S(=O)(=O)Nc1cccc(-c2ccc3c(NC(=O)C4CC4)n[nH]c3c2)c1 (collection day: 2) | -0.531 | 0.107 | 0.107 |
| CN(C)CCOc1cc(-c2cn[nH]c2)ccc1NC(=O)C1COc2ccccc2O1 (stereo unspecified) [SR 3677 dihydrochloride] (collection day: 2) | -0.241 | – | 0.547 |
